Record: PubChem BioAssay AID1259283 (Sanger Institute, 2017)
In all, the deposit lists 794 reagents; this is an unselected part. 14 of them (1.8%) count as active. 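Calls reflect only viability loss without drug; drug synergy does not enter the call.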 Not all columns of the deposit are shown. Not given: the amount of reagent, the time to read-out.

Test: 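Kinases needed for HT115 growth and partners for drug synergy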 (primary screen)
Cells: HT115 colorectal cancer cells
Reagents: siRNA pool against human genes
Conditions: anchor drug given one day after siRNA: BYL719 at 1 µM, cetuximab at 5 µg/ml, trametinib at 10 nM, or DMSO vehicle alone
Measured: 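Per-drug synergy scores plus replicate-mean viability relative to non-targeting pool #2 wells, also expressed as a robust z-score based on control wells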
Scale: robust z-score, knock-down alone: higher = more viable cells after knock-down
Active means: 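a gene counts as essential when its robust z-score with knock-down alone is below -3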
Calls: active = essential (z below -3, no drug); inactive = no change without drug

target gene | robust z-score, knock-down alone | outcome
SRPK1 | -0.135 | inactive
RIOK3 | 0.789 | inactive
ROCK1 | 0.428 | inactive
HSPB8 | 0.406 | inactive
BRD3 | 0.577 | inactive
GRK5 | 0.789 | inactive
MPP3 | -1.9 | inactive
MAPK12 | 0.789 | inactive
CDC42BPG | 0.789 | inactive
PIM3 | 0.789 | inactive
DLG1 | -1.03 | inactive
RTN4 | 0.687 | inactive
CDK5R2 | -0.265 | inactive

Entries above whose gene name starts with M or m (2):
target gene | robust z-score, knock-down alone | outcome
MPP3 | -1.9 | inactive
MAPK12 | 0.789 | inactive

Next reagents:
target gene | robust z-score, knock-down alone | outcome
ACVRL1 | 0.789 | inactive
CSNK1A1L | 0.789 | inactive
RIPK2 | 0.728 | inactive
TGFBR2 | -0.421 | inactive
CSNK2A2 | -1.93 | inactive
IGF1R | 0.689 | inactive
STK17A | -1.04 | inactive
